The text below walks through data of article PMC7381742.

Protein sequences, listed by entry. Tags and fused reporters are not part of them.
UniProt Q61656: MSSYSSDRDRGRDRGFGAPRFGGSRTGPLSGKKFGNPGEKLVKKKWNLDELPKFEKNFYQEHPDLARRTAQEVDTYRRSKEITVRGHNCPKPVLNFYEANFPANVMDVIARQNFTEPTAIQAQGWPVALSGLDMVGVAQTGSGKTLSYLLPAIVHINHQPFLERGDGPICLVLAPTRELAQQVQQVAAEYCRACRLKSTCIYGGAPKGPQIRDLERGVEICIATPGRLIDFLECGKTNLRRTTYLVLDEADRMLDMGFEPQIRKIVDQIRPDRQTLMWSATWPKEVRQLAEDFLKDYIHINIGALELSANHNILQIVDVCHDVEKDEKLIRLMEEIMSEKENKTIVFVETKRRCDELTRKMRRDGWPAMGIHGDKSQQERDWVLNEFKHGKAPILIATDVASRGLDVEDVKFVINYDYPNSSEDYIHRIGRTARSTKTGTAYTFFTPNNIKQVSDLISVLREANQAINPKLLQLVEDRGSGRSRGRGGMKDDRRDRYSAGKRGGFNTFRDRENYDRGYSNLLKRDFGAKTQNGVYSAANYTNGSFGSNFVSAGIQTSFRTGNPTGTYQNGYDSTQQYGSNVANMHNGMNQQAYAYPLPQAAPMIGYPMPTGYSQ
UniProt P02340: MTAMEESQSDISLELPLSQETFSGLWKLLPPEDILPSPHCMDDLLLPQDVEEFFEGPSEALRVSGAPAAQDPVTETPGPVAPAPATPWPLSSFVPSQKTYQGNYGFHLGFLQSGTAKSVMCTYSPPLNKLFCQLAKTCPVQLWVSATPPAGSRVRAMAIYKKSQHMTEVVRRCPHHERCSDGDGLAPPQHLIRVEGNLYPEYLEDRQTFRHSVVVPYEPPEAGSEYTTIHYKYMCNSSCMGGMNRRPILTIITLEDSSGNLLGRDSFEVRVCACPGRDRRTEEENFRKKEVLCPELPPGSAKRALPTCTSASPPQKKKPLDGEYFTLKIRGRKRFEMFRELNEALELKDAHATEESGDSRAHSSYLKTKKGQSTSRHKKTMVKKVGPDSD

Common to all, as to experiment: co-IP; endogenous proteins of mIMCD3 cell lysate; anti-p68, anti-Drosha or anti-p53 antibody (isotype IgG as control) coupled to protein A agarose beads, lysate incubated overnight at 4 °C, beads washed with lysis buffer containing an additional 300 mM NaCl, Western blot
In general terms: In western blotting, separated proteins are transferred to a membrane and probed.

In assay [1] the target is p68 RNA helicase (DEAD-box protein 5) (mouse (endogenous in mIMCD3)) (UniProt Q61656).
Assay [2] addresses T1, Drosha (mouse (endogenous in mIMCD3)) (UniProt Q5HZJ0).
T1 sequence: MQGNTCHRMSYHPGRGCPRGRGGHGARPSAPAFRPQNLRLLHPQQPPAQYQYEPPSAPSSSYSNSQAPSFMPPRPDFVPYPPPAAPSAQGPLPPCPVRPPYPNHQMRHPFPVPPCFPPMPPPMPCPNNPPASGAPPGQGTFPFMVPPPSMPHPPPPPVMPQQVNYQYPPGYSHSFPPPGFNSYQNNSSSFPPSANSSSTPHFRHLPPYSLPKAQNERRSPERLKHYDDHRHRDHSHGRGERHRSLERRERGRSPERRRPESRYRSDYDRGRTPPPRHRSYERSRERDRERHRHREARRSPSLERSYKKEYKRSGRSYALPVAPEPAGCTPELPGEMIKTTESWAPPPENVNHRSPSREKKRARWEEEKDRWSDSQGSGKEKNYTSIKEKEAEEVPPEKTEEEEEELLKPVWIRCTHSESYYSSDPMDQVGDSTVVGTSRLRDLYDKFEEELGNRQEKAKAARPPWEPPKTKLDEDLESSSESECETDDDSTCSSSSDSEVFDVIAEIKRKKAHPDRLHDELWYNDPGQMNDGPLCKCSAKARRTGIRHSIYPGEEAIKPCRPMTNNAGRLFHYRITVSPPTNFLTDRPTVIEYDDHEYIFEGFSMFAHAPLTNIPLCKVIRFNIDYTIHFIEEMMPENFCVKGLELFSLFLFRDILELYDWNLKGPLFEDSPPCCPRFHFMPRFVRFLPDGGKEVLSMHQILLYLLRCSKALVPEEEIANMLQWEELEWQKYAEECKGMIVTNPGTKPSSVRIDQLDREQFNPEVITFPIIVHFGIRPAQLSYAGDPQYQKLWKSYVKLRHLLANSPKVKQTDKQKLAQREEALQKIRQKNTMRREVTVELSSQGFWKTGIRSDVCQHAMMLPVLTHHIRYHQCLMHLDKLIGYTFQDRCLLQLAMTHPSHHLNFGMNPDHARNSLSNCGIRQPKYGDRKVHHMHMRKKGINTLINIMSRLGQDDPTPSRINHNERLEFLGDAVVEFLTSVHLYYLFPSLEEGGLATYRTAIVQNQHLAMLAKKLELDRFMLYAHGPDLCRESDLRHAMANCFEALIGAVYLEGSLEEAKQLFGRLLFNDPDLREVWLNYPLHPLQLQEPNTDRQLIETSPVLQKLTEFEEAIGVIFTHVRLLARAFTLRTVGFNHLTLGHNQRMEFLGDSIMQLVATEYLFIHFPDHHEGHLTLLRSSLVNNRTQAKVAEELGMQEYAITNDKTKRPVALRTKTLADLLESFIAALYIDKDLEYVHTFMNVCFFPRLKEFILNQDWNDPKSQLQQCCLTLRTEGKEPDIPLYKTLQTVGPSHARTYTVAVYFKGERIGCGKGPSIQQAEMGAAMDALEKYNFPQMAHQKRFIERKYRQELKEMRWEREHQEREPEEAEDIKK

Assay [3] concerns the target p53 (mouse (endogenous in mIMCD3)) (UniProt P02340).
For assay [4], the target named is p68 RNA helicase (DEAD-box protein 5) (mouse (endogenous in mIMCD3)) (UniProt Q61656). This is another data set of the same source.

Where two headings read alike, the source gives them in different places. No constants are given. Whether binding was seen depends on the method and setting. Binding seen in cells or lysates may run through a third protein. Some binding calls cover weakened binding; strength is not graded here.

On to p53 (from UniProt P02340 1-390), for which the binding entry in assay [1] and in assay [2] was “binds” throughout.

B1: Drosha (protein, UniProt Q5HZJ0 1-1373)
chain: MQGNTCHRMSYHPGRGCPRGRGGHGARPSAPAFRPQNLRLLHPQQPPAQYQYEPPSAPSSSYSNSQAPSFMPPRPDFVPYPPPAAPSAQGPLPPCPVRPPYPNHQMRHPFPVPPCFPPMPPPMPCPNNPPASGAPPGQGTFPFMVPPPSMPHPPPPPVMPQQVNYQYPPGYSHSFPPPGFNSYQNNSSSFPPSANSSSTPHFRHLPPYSLPKAQNERRSPERLKHYDDHRHRDHSHGRGERHRSLERRERGRSPERRRPESRYRSDYDRGRTPPPRHRSYERSRERDRERHRHREARRSPSLERSYKKEYKRSGRSYALPVAPEPAGCTPELPGEMIKTTESWAPPPENVNHRSPSREKKRARWEEEKDRWSDSQGSGKEKNYTSIKEKEAEEVPPEKTEEEEEELLKPVWIRCTHSESYYSSDPMDQVGDSTVVGTSRLRDLYDKFEEELGNRQEKAKAARPPWEPPKTKLDEDLESSSESECETDDDSTCSSSSDSEVFDVIAEIKRKKAHPDRLHDELWYNDPGQMNDGPLCKCSAKARRTGIRHSIYPGEEAIKPCRPMTNNAGRLFHYRITVSPPTNFLTDRPTVIEYDDHEYIFEGFSMFAHAPLTNIPLCKVIRFNIDYTIHFIEEMMPENFCVKGLELFSLFLFRDILELYDWNLKGPLFEDSPPCCPRFHFMPRFVRFLPDGGKEVLSMHQILLYLLRCSKALVPEEEIANMLQWEELEWQKYAEECKGMIVTNPGTKPSSVRIDQLDREQFNPEVITFPIIVHFGIRPAQLSYAGDPQYQKLWKSYVKLRHLLANSPKVKQTDKQKLAQREEALQKIRQKNTMRREVTVELSSQGFWKTGIRSDVCQHAMMLPVLTHHIRYHQCLMHLDKLIGYTFQDRCLLQLAMTHPSHHLNFGMNPDHARNSLSNCGIRQPKYGDRKVHHMHMRKKGINTLINIMSRLGQDDPTPSRINHNERLEFLGDAVVEFLTSVHLYYLFPSLEEGGLATYRTAIVQNQHLAMLAKKLELDRFMLYAHGPDLCRESDLRHAMANCFEALIGAVYLEGSLEEAKQLFGRLLFNDPDLREVWLNYPLHPLQLQEPNTDRQLIETSPVLQKLTEFEEAIGVIFTHVRLLARAFTLRTVGFNHLTLGHNQRMEFLGDSIMQLVATEYLFIHFPDHHEGHLTLLRSSLVNNRTQAKVAEELGMQEYAITNDKTKRPVALRTKTLADLLESFIAALYIDKDLEYVHTFMNVCFFPRLKEFILNQDWNDPKSQLQQCCLTLRTEGKEPDIPLYKTLQTVGPSHARTYTVAVYFKGERIGCGKGPSIQQAEMGAAMDALEKYNFPQMAHQKRFIERKYRQELKEMRWEREHQEREPEEAEDIKK
In the case of B1, the binding result in assay [3] and in assay [4] was “binds” throughout.
